This is one part of the list. The data scatter; read single values as rough.
compound: ClCC(=O)N[C@H]1CCCc2ccccc12; assay: log2 mean competition ratio of IA-DTB cysteine labelling (DMSO/compound) (log2 ratio); higher = stronger cysteine engagement by compound; details: 50 µM; treatment time: 4 h; cell line lysate: HEK293T
Method: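 IA-DTB competitive cysteine chemoproteomics in HEK293T RIPA lysate. Lysates were treated with compound 29 or 30 at 50 or 200 µM for 4 h, then IA-DTB (500 µM, 1 h), trypsin-digested, NeutrAvidin-enriched and analysed by diaPASEF. Competition ratio = intensity DMSO / intensity compound (n=4 treated, n=64 DMSO); binding: mean log2 CR ≥ 1 and p ≤ 0.05 plus QC filters. Target is the cysteine site.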

Amino acid sequences for entries named in this document (tags omitted). A change or cut given only in a name is not applied to a line headed by its entry.
UniProt Q8N5U6: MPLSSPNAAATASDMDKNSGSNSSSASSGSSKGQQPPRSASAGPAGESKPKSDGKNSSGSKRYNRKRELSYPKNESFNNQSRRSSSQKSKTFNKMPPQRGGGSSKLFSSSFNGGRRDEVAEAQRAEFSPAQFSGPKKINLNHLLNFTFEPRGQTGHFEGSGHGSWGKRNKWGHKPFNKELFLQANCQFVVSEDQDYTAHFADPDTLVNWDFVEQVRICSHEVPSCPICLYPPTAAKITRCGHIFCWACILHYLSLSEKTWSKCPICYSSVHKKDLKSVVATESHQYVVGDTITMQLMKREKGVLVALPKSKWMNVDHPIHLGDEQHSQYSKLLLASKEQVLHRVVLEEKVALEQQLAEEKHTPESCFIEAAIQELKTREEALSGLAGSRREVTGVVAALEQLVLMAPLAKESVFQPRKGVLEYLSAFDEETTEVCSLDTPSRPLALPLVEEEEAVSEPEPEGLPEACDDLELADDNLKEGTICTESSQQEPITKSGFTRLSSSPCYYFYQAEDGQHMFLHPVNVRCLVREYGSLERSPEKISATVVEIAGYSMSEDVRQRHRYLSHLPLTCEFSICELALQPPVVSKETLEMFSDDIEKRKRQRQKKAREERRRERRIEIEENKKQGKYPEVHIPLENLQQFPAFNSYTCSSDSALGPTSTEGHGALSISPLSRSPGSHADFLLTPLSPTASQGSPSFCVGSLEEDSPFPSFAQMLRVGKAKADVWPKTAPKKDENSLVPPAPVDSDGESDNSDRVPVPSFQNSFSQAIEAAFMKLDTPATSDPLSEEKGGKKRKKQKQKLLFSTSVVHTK
UniProt O95197: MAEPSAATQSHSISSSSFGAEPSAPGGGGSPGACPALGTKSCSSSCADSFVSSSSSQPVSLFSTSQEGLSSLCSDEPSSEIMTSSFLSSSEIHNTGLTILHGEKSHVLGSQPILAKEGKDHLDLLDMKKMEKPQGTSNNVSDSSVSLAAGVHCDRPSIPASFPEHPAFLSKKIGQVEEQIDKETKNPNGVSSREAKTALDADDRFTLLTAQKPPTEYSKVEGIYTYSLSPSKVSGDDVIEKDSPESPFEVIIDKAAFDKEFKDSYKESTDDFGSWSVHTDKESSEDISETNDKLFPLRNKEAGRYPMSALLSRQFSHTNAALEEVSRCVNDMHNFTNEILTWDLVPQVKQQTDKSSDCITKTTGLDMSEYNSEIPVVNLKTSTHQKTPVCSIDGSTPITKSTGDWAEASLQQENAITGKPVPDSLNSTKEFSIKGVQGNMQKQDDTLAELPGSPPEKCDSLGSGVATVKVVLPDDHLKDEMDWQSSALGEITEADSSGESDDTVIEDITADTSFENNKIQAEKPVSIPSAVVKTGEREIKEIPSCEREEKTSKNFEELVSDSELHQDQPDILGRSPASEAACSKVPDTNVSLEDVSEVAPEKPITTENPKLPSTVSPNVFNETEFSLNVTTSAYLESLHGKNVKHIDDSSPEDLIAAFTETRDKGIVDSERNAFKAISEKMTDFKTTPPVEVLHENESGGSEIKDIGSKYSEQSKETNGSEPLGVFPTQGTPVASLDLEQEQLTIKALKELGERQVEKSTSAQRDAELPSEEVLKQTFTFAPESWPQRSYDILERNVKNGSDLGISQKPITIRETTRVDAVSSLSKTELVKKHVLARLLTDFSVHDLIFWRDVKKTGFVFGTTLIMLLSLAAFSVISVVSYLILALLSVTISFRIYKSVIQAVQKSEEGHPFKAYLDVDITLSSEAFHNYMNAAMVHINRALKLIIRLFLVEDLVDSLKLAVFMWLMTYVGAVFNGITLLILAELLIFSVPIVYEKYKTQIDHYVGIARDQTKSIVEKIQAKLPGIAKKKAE
UniProt Q9NZJ4: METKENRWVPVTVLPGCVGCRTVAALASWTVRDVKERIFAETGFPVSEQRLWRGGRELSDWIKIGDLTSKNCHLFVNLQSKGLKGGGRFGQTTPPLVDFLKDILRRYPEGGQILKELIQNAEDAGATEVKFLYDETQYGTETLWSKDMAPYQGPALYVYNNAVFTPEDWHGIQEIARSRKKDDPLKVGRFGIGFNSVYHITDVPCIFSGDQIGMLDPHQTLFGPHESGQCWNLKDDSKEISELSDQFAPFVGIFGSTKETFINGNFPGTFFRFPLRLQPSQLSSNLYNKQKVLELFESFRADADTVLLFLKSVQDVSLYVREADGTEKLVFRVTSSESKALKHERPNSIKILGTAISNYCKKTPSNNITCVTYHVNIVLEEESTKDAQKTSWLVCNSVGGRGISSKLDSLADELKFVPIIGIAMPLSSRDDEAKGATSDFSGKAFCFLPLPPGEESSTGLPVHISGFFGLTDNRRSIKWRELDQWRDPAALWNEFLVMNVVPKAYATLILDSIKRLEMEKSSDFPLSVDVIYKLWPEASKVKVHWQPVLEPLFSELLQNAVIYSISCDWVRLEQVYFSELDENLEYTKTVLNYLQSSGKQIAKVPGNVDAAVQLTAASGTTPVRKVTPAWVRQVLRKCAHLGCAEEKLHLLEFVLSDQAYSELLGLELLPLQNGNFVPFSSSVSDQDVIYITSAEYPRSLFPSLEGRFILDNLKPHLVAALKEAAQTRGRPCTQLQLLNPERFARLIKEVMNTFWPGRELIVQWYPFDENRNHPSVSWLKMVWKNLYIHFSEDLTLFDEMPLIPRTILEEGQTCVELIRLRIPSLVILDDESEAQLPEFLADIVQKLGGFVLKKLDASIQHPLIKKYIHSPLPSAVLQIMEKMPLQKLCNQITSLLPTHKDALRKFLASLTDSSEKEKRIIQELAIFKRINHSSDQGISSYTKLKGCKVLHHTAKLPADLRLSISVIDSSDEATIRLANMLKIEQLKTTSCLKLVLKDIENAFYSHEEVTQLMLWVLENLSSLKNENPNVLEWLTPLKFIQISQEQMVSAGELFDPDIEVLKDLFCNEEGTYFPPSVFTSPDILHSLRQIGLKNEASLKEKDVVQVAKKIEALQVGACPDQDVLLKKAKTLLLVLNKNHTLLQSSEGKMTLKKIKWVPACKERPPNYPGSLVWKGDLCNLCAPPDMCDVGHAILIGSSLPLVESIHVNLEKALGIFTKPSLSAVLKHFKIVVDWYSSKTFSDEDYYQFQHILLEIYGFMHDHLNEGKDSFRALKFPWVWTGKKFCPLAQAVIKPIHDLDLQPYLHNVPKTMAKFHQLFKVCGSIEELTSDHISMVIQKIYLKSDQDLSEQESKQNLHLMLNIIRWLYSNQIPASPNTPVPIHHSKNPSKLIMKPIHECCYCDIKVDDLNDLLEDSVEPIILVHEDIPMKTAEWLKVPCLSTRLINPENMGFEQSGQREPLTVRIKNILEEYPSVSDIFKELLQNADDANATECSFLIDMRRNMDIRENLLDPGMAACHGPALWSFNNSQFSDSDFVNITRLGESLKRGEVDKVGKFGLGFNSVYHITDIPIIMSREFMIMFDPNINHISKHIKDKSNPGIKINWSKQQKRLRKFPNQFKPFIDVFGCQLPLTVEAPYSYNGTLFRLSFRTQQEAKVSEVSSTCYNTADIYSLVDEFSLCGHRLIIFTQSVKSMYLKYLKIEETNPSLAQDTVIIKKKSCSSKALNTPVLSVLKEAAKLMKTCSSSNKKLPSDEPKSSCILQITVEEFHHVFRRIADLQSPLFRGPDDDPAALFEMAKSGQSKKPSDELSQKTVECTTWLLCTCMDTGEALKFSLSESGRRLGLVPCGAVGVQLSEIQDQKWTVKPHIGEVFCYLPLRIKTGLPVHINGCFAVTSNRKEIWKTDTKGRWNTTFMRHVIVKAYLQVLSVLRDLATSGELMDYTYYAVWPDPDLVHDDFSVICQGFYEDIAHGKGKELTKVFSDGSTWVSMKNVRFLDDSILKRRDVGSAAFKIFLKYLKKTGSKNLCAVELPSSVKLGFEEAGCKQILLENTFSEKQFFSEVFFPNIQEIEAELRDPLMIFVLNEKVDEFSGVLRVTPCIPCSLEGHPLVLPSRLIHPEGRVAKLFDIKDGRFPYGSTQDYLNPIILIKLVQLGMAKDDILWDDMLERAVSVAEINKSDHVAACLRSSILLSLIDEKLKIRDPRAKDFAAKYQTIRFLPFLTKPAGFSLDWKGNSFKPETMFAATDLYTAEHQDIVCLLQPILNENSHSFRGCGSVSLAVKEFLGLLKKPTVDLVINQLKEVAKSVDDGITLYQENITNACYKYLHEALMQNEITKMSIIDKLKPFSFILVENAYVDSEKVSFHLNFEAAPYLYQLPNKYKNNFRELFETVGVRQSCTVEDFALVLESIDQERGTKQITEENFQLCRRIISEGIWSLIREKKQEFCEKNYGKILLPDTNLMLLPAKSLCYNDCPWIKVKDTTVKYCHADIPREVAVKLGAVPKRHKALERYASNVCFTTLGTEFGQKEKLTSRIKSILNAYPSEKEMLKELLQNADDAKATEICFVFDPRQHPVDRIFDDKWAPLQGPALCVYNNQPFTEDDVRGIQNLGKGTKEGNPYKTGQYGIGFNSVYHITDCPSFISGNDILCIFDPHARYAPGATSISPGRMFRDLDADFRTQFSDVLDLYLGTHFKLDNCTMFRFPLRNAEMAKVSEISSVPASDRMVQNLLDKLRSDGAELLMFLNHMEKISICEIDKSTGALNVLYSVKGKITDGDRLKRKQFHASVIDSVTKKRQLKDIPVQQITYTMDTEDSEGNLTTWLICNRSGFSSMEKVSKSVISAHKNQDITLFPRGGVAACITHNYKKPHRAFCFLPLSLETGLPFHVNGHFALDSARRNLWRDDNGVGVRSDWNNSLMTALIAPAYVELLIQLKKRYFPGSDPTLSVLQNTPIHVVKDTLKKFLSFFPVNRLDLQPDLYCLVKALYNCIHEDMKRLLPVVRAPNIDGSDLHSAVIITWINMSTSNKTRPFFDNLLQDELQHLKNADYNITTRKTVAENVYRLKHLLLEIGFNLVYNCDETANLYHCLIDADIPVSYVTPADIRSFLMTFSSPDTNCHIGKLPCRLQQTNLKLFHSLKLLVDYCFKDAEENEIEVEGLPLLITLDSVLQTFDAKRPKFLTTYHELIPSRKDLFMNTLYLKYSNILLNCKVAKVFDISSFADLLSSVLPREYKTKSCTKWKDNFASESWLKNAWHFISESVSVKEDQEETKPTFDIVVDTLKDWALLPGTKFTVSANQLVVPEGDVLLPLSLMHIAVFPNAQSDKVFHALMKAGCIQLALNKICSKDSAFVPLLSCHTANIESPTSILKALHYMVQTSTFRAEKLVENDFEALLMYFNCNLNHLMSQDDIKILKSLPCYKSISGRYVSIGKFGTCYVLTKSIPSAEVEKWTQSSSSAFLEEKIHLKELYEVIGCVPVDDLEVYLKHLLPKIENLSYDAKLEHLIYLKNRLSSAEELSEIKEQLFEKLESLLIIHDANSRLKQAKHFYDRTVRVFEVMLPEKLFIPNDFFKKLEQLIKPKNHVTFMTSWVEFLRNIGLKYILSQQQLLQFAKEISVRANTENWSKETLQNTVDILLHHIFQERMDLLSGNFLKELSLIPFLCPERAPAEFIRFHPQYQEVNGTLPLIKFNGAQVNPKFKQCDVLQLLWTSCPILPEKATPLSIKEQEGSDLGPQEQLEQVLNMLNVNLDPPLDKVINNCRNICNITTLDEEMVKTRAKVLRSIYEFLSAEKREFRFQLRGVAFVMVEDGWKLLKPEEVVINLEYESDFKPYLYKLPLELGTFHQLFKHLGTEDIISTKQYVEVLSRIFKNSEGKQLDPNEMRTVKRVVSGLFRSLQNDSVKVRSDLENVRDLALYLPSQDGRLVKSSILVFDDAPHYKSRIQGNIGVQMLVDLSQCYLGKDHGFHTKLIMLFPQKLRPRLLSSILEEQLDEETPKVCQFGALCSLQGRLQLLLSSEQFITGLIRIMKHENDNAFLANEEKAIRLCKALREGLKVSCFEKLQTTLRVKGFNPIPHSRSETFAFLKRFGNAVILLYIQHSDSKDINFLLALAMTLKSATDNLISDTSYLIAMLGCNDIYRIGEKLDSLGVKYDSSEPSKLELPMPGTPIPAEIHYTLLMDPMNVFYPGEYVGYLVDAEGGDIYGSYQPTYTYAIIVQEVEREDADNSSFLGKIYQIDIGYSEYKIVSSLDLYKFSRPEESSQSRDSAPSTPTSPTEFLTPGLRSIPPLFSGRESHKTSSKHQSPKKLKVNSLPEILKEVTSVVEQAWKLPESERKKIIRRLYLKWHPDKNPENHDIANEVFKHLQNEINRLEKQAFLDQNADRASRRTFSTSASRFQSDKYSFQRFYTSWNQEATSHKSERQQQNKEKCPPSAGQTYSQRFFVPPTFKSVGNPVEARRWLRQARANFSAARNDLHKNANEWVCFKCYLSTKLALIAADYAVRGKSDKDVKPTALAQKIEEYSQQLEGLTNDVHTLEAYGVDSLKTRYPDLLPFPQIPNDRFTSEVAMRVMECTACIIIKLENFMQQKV
UniProt Q8N5L8: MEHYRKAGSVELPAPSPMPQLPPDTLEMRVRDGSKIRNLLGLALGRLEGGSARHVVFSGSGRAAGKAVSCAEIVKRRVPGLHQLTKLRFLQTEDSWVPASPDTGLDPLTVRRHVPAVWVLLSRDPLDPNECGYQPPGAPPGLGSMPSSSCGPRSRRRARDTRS

| Target | log2 mean competition ratio |
| --- | --- |
| RNF10 C366 (UniProt Q8N5U6) | 0.308 |
| RPL36A;RPL36AL C88;(C88) | 0.162 |
| RUFY1 C184 (UniProt Q96T51) | -0.17 |
| RPN2 C100 (UniProt P04844) | 0.134 |
| RTN3 C390 (UniProt O95197) | -0.718 |
| RNF213 C3084 | 0.106 |
| RNF213 C2536 | -0.0257 |
| RRP12 C102 (UniProt Q5JTH9) | 0.46 |
| RTCA C153 (UniProt O00442) | 0.256 |
| RPL12 C141 (UniProt P30050) | 0.193 |
| ROCK1 C1300 (UniProt Q13464) | -0.558 |
| RNF135 C270 | -0.416 |
| SACS C3655 (UniProt Q9NZJ4) | -0.225 |
| RPS6KA3 C229 (UniProt P51812) | 0.937 |
| RNF113A C202 (UniProt O15541) | -0.286 |
| RPP25L C70 (UniProt Q8N5L8) | 0.603 |
| RSAD1 C175 (UniProt Q9HA92) | 0.193 |
| RPRD2 C1071 (UniProt Q5VT52) | 0.139 |
| ROCK2 C804 (UniProt O75116) | 0.355 |
| RPS6KA1 C432 (UniProt Q15418) | 0.864 |

same assay, conditions: 200 µM; treatment time: 4 h; cell line lysate: HEK293T

| Target | log2 mean competition ratio |
| --- | --- |
| RNF10 C366 (UniProt Q8N5U6) | 0.0741 |
| RPL36A;RPL36AL C88;(C88) | -0.0501 |
| RUFY1 C184 (UniProt Q96T51) | -0.0846 |
| RPN2 C100 (UniProt P04844) | -0.523 |
| RTN3 C390 (UniProt O95197) | 0.0406 |
| RNF213 C3084 | 0.0953 |
| RNF213 C2536 | 0.0575 |
| RRP12 C102 (UniProt Q5JTH9) | 0.145 |
| RTCA C153 (UniProt O00442) | -0.125 |
| RPL12 C141 (UniProt P30050) | -0.234 |
| ROCK1 C1300 (UniProt Q13464) | 0.149 |
| RNF135 C270 | 0.00677 |
| SACS C3655 (UniProt Q9NZJ4) | 0.0712 |
| RXRA C269 (UniProt P19793) | -0.161 |
| RPS6KA3 C229 (UniProt P51812) | 0.226 |
| RNF113A C202 (UniProt O15541) | 0.0103 |
| RPP25L C70 (UniProt Q8N5L8) | -0.226 |
| RSAD1 C175 (UniProt Q9HA92) | 0.519 |
| RPRD2 C1071 (UniProt Q5VT52) | -0.135 |
| ROCK2 C804 (UniProt O75116) | 0.127 |
| RPS6KA1 C432 (UniProt Q15418) | -0.235 |

Source: the supplement of paper PMC11732987, “Enantioselective OTUD7B fragment discovery through chemoproteomics screening and high-throughput optimisation” (Communications Chemistry, 2025)
